According to paper PMC7819943, “Rice protein-binding microarrays: a tool to detect cis-acting elements near promoter regions in rice”:
The other results are listed elsewhere or left out.

By UniProt entry, the sequences of proteins in these tests, tags left out.
UniProt Q0JBA9, entry or part of it: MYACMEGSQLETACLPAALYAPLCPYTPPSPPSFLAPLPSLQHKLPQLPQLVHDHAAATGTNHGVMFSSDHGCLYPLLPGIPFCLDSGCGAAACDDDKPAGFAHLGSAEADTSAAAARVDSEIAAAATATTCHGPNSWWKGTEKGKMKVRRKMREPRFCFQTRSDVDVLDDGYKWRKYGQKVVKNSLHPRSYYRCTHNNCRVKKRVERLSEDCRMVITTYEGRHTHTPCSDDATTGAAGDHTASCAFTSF

Each sequence was assayed against OsWRKY34 (Oryza sativa, UniProt Q0JBA9 1-250) (assay: protein-binding microarray (RPBM); PBS, 2% BSA, 51.3 ng/ul salmon testes DNA, 50 uM zinc acetate, 200 nM TF, 25 C, 1 h; high values mean tight binding). Conditions: protein: recombinant; tags: N-terminal polyhistidine and DsRed monomer fusion (pET32a); label: CyDye5-dUTP incorporated in the synthesized complementary strand; 3' TTTTT single-stranded linker to array surface; dsDNA, one strand shown.
Method in brief: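 Binding signal here means per-feature fluorescence intensity in arbitrary units. The values were read on an Axon 4000B scanner after a custom Agilent array, double-stranded by primer extension with Cy5-dUTP, was incubated with 200 nM protein at 25 °C for 1 h in PBS with 2% BSA, salmon testes DNA and 50 µM zinc acetate, then washed. The proteins were transcription factors with an N-terminal polyhistidine tag and DsRed, expressed in E. coli BL21-CodonPlus and purified on Ni–NTA.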

| Sequence | binding signal |
| --- | --- |
| CTGCGTCGTCTTTTCTCTCTCTACTGGTTGGTATGGTAATCGGAGTCACCTAGTGCAG | 11000 fluorescence intensity (a.u.) |
| ATTAATATCCTCCTTGCAAGATATGCACTACTGTTACAGACGGAGTCACCTAGTGCAG | 8470 fluorescence intensity (a.u.) |
| ATCACCACCCACCCCGCTCCTCGCGCCGCCGACGCGCCACCGGAGTCACCTAGTGCAG | 9350 fluorescence intensity (a.u.) |
| ACGTGCATAATTATTTTTATTCTTGATATGTGTTTGACAGCGGAGTCACCTAGTGCAG | 8080 fluorescence intensity (a.u.) |
| TTTTGTTTGGCTCAGCTCGGTTCACTCCCTGTTCATGTTACGGAGTCACCTAGTGCAG | 10700 fluorescence intensity (a.u.) |
| TCCCAATTCACAGCTGGGTCTATGTATCACTTATCAAGTACGGAGTCACCTAGTGCAG | 9860 fluorescence intensity (a.u.) |
| TGTCCGGTTTTCGTAAGTTGGGGAATGGGTCGTATCCGGTCGGAGTCACCTAGTGCAG | 8160 fluorescence intensity (a.u.) |
| ATCAGCTTTCTCAAACCACGCAGCCACGACACATCGATCTCGGAGTCACCTAGTGCAG | 8960 fluorescence intensity (a.u.) |
| TACGTACCATCCATGCATGATCCATCCATCTTGCGGCCATCGGAGTCACCTAGTGCAG | 11900 fluorescence intensity (a.u.) |
| CATGTTGAATGCCAACGTCTCATCAGCGCATTCACCTTCACGGAGTCACCTAGTGCAG | 9760 fluorescence intensity (a.u.) |
| GATTTTTGTATGCCGTTCTTTTAACTGAAACCATTCGATTCGGAGTCACCTAGTGCAG | 8750 fluorescence intensity (a.u.) |
| TGGTTTTTTGTTTTCTTATCGCCTTTTTACGACTTTTTTTCGGAGTCACCTAGTGCAG | 9270 fluorescence intensity (a.u.) |
| CTCAATCCAATCTTGCCGCTCTCCGGGCTCACAGTTTCTTCGGAGTCACCTAGTGCAG | 10300 fluorescence intensity (a.u.) |
| CTAGGGTTTGATGGGAGATGGATGTGTGGTGATGGCCTAGCGGAGTCACCTAGTGCAG | 8150 fluorescence intensity (a.u.) |
| ACGATTATCCCAGCTCTGTTTTCCGGTATGACCATTGATTCGGAGTCACCTAGTGCAG | 8750 fluorescence intensity (a.u.) |
| CCCCAACCCGCCGCCAGCCACCGAGCTCGCCACCGTCTCCCGGAGTCACCTAGTGCAG | 8970 fluorescence intensity (a.u.) |
| GATAAACCCTCATCGTCAGTTCGTCACCCACCGTCGCCTCCGGAGTCACCTAGTGCAG | 9030 fluorescence intensity (a.u.) |
| TTCTTCTTCTTACTACAGACTGAGTACGGCGATATCTTCACGGAGTCACCTAGTGCAG | 8170 fluorescence intensity (a.u.) |
| TGTGATTTAGTTTGACCAGGGAGGCCATGATCTGCATGCACGGAGTCACCTAGTGCAG | 8480 fluorescence intensity (a.u.) |
| GCTTCCCTGCTGTTTCGTTTTCTAATTCTGGGATGCACCTCGGAGTCACCTAGTGCAG | 10400 fluorescence intensity (a.u.) |
| TCTGGTCATTCATCTTATGTGGTTCATACTTTTTAGCACTCGGAGTCACCTAGTGCAG | 9250 fluorescence intensity (a.u.) |

Reprinted at random: two records from the list.

| Sequence | binding signal |
| --- | --- |
| TGTCCGGTTTTCGTAAGTTGGGGAATGGGTCGTATCCGGTCGGAGTCACCTAGTGCAG | 8160 fluorescence intensity (a.u.) |
| TCCCAATTCACAGCTGGGTCTATGTATCACTTATCAAGTACGGAGTCACCTAGTGCAG | 9860 fluorescence intensity (a.u.) |

The listing continues.

| Sequence | binding signal |
| --- | --- |
| ATTATATAATCATTATTTATTTTATCATCACATGTTTTATCGGAGTCACCTAGTGCAG | 8980 fluorescence intensity (a.u.) |
| GTTTTCTGGTCAAACTCCAACCGTTTTACCCGCCATTTTGCGGAGTCACCTAGTGCAG | 10200 fluorescence intensity (a.u.) |
| ACCTGATTTCCCCTTGCTAATTCGGGCCATCGCATCACTCCGGAGTCACCTAGTGCAG | 8960 fluorescence intensity (a.u.) |
| CTGCTGCTCTTTTCGTCTATGGAAATGCCATACCGATTCCCGGAGTCACCTAGTGCAG | 10900 fluorescence intensity (a.u.) |
| TTATTTTTATTCTTTTATTGTTTTTTTCACTCCATAATAACGGAGTCACCTAGTGCAG | 9140 fluorescence intensity (a.u.) |
| TCTCCTCCACCTTTTTATACAACGCAAATCGCCTCGTCACCGGAGTCACCTAGTGCAG | 8780 fluorescence intensity (a.u.) |
| TCACTTTATTTTATCGCATTGGCAAAGACTATCCATATCCCGGAGTCACCTAGTGCAG | 9320 fluorescence intensity (a.u.) |
| CCACGCCCACGCCCACGCCCACGCCCACGCCACGCGTCCCCGGAGTCACCTAGTGCAG | 9080 fluorescence intensity (a.u.) |
| GGACATTTGGAACTGATTACTCCTACTACTCTAGTGAAAACGGAGTCACCTAGTGCAG | 8400 fluorescence intensity (a.u.) |
| CAGAACGAGTCCACAGCCTTAACCGCCATGCAATGCACCACGGAGTCACCTAGTGCAG | 8590 fluorescence intensity (a.u.) |
| ACCCAGCGCCGCCATTTTATTCGCTTCGTCAGAACTCAAACGGAGTCACCTAGTGCAG | 10100 fluorescence intensity (a.u.) |
| GCGGTTTGTTCCGCCGCGTGCGCGTTTCAGCTCCTTTTTCCGGAGTCACCTAGTGCAG | 8640 fluorescence intensity (a.u.) |
| GCTCACATTTCTTGGCCATTTCTTACCTTCCAAGCACCACCGGAGTCACCTAGTGCAG | 10800 fluorescence intensity (a.u.) |
| TTTATAGATGGGGAAGGGGTGGCAACTAGAGACGCGACGGCGGAGTCACCTAGTGCAG | 9070 fluorescence intensity (a.u.) |
| ATCTACTTTTCTTCCTTTTAGGTTCAACACAATGTTTGCTCGGAGTCACCTAGTGCAG | 8200 fluorescence intensity (a.u.) |
| GCCCACATACTCACGGCCCACCGTATCCTATCGTGCCCTACGGAGTCACCTAGTGCAG | 10200 fluorescence intensity (a.u.) |
| ATGGTCTTGATTTCGCAGTGTGTTAGTTGTTAGTTTTGAGCGGAGTCACCTAGTGCAG | 10900 fluorescence intensity (a.u.) |
| GCACTTACGGGTGGTGATTGTAGTGTGCGTGTGTGTCTTTCGGAGTCACCTAGTGCAG | 9130 fluorescence intensity (a.u.) |
| GGATGGCAGAAAGGGGAATTGGAAGTTGGTGTACCGTTGCCGGAGTCACCTAGTGCAG | 8300 fluorescence intensity (a.u.) |
| GCGCTACTACTGCTCCAGCCACTTCATTCAACCCCGTCTTCGGAGTCACCTAGTGCAG | 9630 fluorescence intensity (a.u.) |
| AACCACCCACCCAACCAGCCAGGCGGCCGGCCGCCACCGTCGGAGTCACCTAGTGCAG | 8870 fluorescence intensity (a.u.) |
